These are yes or no findings as the source states them, for the method shown. For part of these data: Binding seen in cells or lysates may run through a third protein. Some results given as binding are weak or reduced against the parent protein; the word gives no strength. Sequences can lack the tags named with a protein.
T1: TOP2 fused to the N-terminal or the C-terminal half of Renilla luciferase (UniProt Q949P2)
T1 sequence: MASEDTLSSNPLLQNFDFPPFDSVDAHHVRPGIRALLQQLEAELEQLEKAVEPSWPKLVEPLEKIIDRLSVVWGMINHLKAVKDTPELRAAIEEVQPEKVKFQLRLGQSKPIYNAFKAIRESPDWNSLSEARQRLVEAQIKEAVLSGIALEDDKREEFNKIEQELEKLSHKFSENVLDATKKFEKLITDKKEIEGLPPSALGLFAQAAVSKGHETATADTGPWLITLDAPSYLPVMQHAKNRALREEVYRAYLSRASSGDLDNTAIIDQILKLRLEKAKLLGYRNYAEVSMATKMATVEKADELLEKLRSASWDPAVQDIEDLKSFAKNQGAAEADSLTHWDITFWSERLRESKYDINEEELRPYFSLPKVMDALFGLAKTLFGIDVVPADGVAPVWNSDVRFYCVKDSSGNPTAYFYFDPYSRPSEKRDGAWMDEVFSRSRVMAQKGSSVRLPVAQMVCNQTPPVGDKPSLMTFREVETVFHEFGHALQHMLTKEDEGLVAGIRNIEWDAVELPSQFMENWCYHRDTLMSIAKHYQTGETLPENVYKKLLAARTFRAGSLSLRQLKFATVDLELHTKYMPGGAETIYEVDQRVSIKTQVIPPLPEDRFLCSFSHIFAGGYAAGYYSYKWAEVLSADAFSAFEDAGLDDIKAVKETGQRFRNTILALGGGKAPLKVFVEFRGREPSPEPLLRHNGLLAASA


Experiments:
[1] = molecular target: T1, TOP2 fused to the N-terminal or the C-terminal half of Renilla luciferase; experiment: split reporter; split Renilla luciferase complementation in Arabidopsis protoplasts co-transformed with NLuc and CLuc fusions; luminescence read 12-16 h after transformation; with or without 100 or 200 uM SA (3 h)
[2] = molecular target: TOP1 fused to the N-terminal or the C-terminal half of Renilla luciferase (UniProt Q94AM1); experiment: as above
[3] = molecular target: full length TOP2-His (UniProt Q949P2); experiment: SEC; Superdex 200 gel filtration of cobalt-column purified His-tagged protein after incubation with 500 uM DTT overnight; both purified

Binder | binding [1] | binding [2] | binding [3]
TOP1 fused to the N-terminal or the C-terminal half of Renilla luciferase (enzyme, UniProt Q94AM1 83-791) AAAVESVVSDETLSSNPLLQDFDFPPFDSVDASHVRPGIRALLQHLEAELEELEKSVEPTWPKLVEPLEKIVDRLTVVWGMINHLKAVKDTPELRAAIEDVQPEKVKFQLRLGQSKPIYNAFKAIRESPDWSSLSEARQRLVEAQIKEAVLIGIALDDEKREEFNKIEQELEKLSHKFSENVLDATKKFEKLITDKKEIEGLPPSALGLFAQAAVSKGHENATAENGPWIITLDAPSYLPVMQHAKNRALREEVYRAYLSRASSGDLDNTAIIDQILKLRLEKAKLLGYNNYAEVSMAMKMATVEKAAELLEKLRSASWDAAVQDMEDLKSFAKNQGAAESDSMTHWDTTFWSERLRESKYDINEEELRPYFSLPKVMDGLFSLAKTLFGIDIEPADGLAPVWNNDVRFYRVKDSSGNPIAYFYFDPYSRPSEKRGGAWMDEVVSRSRVMAQKGSSVRLPVAHMVCNQTPPVGDKPSLMTFREVETVFHEFGHALQHMLTKQDEGLVAGIRNIEWDAVELPSQFMENWCYHRDTLMSIAKHYETGETLPEEVYKKLLAARTFRAGSFSLRQLKFASVDLELHTKYVPGGPESIYDVDQRVSVKTQVIPPLPEDRFLCSFSHIFAGGYAAGYYSYKWAEVLSADAFSAFEDAGLDDIKAVKETGQRFRNTILALGGGKAPLKVFVEFRGREPSPEPLLRHNGLLAASASA | binds | binds | 
full length TOP2-His (enzyme, UniProt Q949P2 1-701) MASEDTLSSNPLLQNFDFPPFDSVDAHHVRPGIRALLQQLEAELEQLEKAVEPSWPKLVEPLEKIIDRLSVVWGMINHLKAVKDTPELRAAIEEVQPEKVKFQLRLGQSKPIYNAFKAIRESPDWNSLSEARQRLVEAQIKEAVLSGIALEDDKREEFNKIEQELEKLSHKFSENVLDATKKFEKLITDKKEIEGLPPSALGLFAQAAVSKGHETATADTGPWLITLDAPSYLPVMQHAKNRALREEVYRAYLSRASSGDLDNTAIIDQILKLRLEKAKLLGYRNYAEVSMATKMATVEKADELLEKLRSASWDPAVQDIEDLKSFAKNQGAAEADSLTHWDITFWSERLRESKYDINEEELRPYFSLPKVMDALFGLAKTLFGIDVVPADGVAPVWNSDVRFYCVKDSSGNPTAYFYFDPYSRPSEKRDGAWMDEVFSRSRVMAQKGSSVRLPVAQMVCNQTPPVGDKPSLMTFREVETVFHEFGHALQHMLTKEDEGLVAGIRNIEWDAVELPSQFMENWCYHRDTLMSIAKHYQTGETLPENVYKKLLAARTFRAGSLSLRQLKFATVDLELHTKYMPGGAETIYEVDQRVSIKTQVIPPLPEDRFLCSFSHIFAGGYAAGYYSYKWAEVLSADAFSAFEDAGLDDIKAVKETGQRFRNTILALGGGKAPLKVFVEFRGREPSPEPLLRHNGLLAASA |  |  | binds weakly

Source: paper PMC4434903
